{
  "source": "PubChem BioAssay AID1347426",
  "about": "(Functional Genomics Laboratory (NCATS/FGL), 2020)",
  "note": "In all, about 31,000 sequences went through this assay and about 1,400 (4.5%) were called active.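 How the source made its calls: active means median seed-adjusted z-score above 1 or below -1; inactive means the rest.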 The list shows a part of the results.",
  "data": [
    {"experiment": "Novel Modifiers of Survival Motor Neuron (SMN) Protein: Gene Identification via Genome-wide siRNA Screen;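 further: luminescence tracks full-length SMN protein made from the SMN2 reporter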", "settings": "HEK293T SMN2-luciferase reporter, siRNA knockdown, 72 h; actives lie on both sides", "how_it_was_run": "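HEK293T cells stably carrying an SMN2 promoter/splicing cassette–luciferase reporter were reverse-transfected with 1 pmol siRNA per well (druggable-genome library, 3 siRNAs per gene) and grown 72 h at 37 °C. Luminescence, normalized to negative-control siRNA and log10-transformed, was scored as MAD.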", "values": [
      {"sequence": "GUACCCAAGUAACAACUGUTT against CXCL11", "median seed-adjusted z-score": "inactive: -0.135"},
      {"sequence": "GGAUAUGCAUGCAAUCAAATT against ADAM23", "median seed-adjusted z-score": "inactive: -0.0279"},
      {"sequence": "GAGCAAGGGUUGUUUGGGATT against THAP8", "median seed-adjusted z-score": "inactive: -0.872"},
      {"sequence": "CCACUUCAAGAAAACUUCATT against ZSCAN22", "median seed-adjusted z-score": "inactive: 0.277"},
      {"sequence": "CCAGUACCAAAGUUGAUAATT against RB1", "median seed-adjusted z-score": "inactive: 0.49"},
      {"sequence": "AGAGCCUUAUGAUCGAGCATT against SGK2", "median seed-adjusted z-score": "inactive: 0.306"},
      {"sequence": "GCAGCUCAUUCAGACCUAUTT against PLCD3", "median seed-adjusted z-score": "inactive: 0.228"},
      {"sequence": "GCUUGUGCCCAGAAUUUCATT against ADCK4", "median seed-adjusted z-score": "inactive: -0.181"},
      {"sequence": "CAAUCACUGUGGAAUAUCATT against INPPL1", "median seed-adjusted z-score": "inactive: 0.199"},
      {"sequence": "AGGUCAAGCUUAGUGACAATT against ZDHHC8", "median seed-adjusted z-score": "inactive: 0"},
      {"sequence": "GGAGUAACUGAGAUAGAAATT against AGPAT3", "median seed-adjusted z-score": "inactive: 0"},
      {"sequence": "GGAUCUACUCGACUCCCUUTT against HOXC6", "median seed-adjusted z-score": "inactive: -0.137"},
      {"sequence": "GAAAAUGUGGGAUCAAGAATT against COQ7", "median seed-adjusted z-score": "inactive: 0.159"},
      {"sequence": "CAGGUCGGAUGGUAAAUUUTT against MFHAS1", "median seed-adjusted z-score": "inactive: -0.267"},
      {"sequence": "GCCUUAAUGUAAUACAGCATT against NANOG", "median seed-adjusted z-score": "inactive: -0.106"},
      {"sequence": "CUUUGUCAGAGAUCACUUATT against PIPOX", "median seed-adjusted z-score": "active: 1.06"},
      {"sequence": "CACUAUGGAUGCUAUCAAATT against COL1A2", "median seed-adjusted z-score": "inactive: 0.481"},
      {"sequence": "CCGUGAAUAUGAUUGCUAUTT against LIG4", "median seed-adjusted z-score": "inactive: 0.576"},
      {"sequence": "CUACCGCAAUGAAUGUGCATT against FST", "median seed-adjusted z-score": "inactive: 0.357"},
      {"sequence": "GGAUCUUCAAAGGAUCGGATT against PKN2", "median seed-adjusted z-score": "inactive: 0.383"},
      {"sequence": "GCUGGUUCAUUUUUCAGAATT against KMO", "median seed-adjusted z-score": "inactive: 0.443"},
      {"sequence": "GAUUUUUGGGAAUACUAUATT against MCM9", "median seed-adjusted z-score": "inactive: -0.709"},
      {"sequence": "CCUUAACAGACGGAAUGAATT against CLDN5", "median seed-adjusted z-score": "inactive: 0"},
      {"sequence": "UAUCUUCUCUCUACACCAATT against PLA2G4C", "median seed-adjusted z-score": "inactive: 0.331"},
      {"sequence": "CCAUCAAGAAUAUCAAAGATT against S100A12", "median seed-adjusted z-score": "inactive: 0.346"},
      {"sequence": "CGACCGCAACCUGAAGACATT against TCF7", "median seed-adjusted z-score": "inactive: -0.338"},
      {"sequence": "GAACAUUGGUCUGUCUAUATT against SNX14", "median seed-adjusted z-score": "inactive: 0"},
      {"sequence": "CAAAUUGGAUUGAGACUAUTT against NAMPT", "median seed-adjusted z-score": "inactive: 0"},
      {"sequence": "GAAGAGCCUUUGAUCUCUATT against ANTXR2", "median seed-adjusted z-score": "inactive: -0.727"},
      {"sequence": "GGAAUUUGUUUGUCAUGCATT against GATAD1", "median seed-adjusted z-score": "inactive: 0.328"},
      {"sequence": "GGACCGCAAGUACACUCUATT against TAF10", "median seed-adjusted z-score": "inactive: -0.587"},
      {"sequence": "GAGAAGGCAUUGUUACUAATT against GKAP1", "median seed-adjusted z-score": "inactive: -0.119"},
      {"sequence": "GCAUCCUUACAGCACUGCATT against XRCC3", "median seed-adjusted z-score": "inactive: 0.332"},
      {"sequence": "GGACUACAAGGAUAACCCATT against SF4", "median seed-adjusted z-score": "inactive: 0.498"},
      {"sequence": "GCCCUUCCUUGAGUUCAAATT against SULT1A2", "median seed-adjusted z-score": "inactive: 0.0541"},
      {"sequence": "GGAUGUUUUCGAAACGCAUTT against BRDT", "median seed-adjusted z-score": "inactive: -0.357"},
      {"sequence": "GGAUCCCGCUGCACAAGUUTT against CTSD", "median seed-adjusted z-score": "inactive: -0.282"},
      {"sequence": "CGAGCGCAAAGCAAACGUATT against NR0B1", "median seed-adjusted z-score": "inactive: -0.526"},
      {"sequence": "GCAGAUCCGAUACACGAUUTT against PCDHGB1", "median seed-adjusted z-score": "inactive: -0.482"},
      {"sequence": "GCAACAAUGUGGGACUAUATT against CHPT1", "median seed-adjusted z-score": "inactive: 0.0678"},
      {"sequence": "CAGGCUAUCUAGCUUGAUATT against LARP5", "median seed-adjusted z-score": "inactive: -0.144"},
      {"sequence": "UUCUUGCACUACAACCUGATT against PIGZ", "median seed-adjusted z-score": "inactive: 0.74"},
      {"sequence": "GUUUAAGUCAGAAACCAAATT against MSRB3", "median seed-adjusted z-score": "inactive: -0.218"},
      {"sequence": "CCACUUUUCCAGUACCAGATT against ZNF333", "median seed-adjusted z-score": "inactive: 0.418"},
      {"sequence": "GACUGUAAAUUGACAUGCATT against SCUBE3", "median seed-adjusted z-score": "inactive: 0.152"},
      {"sequence": "GCUACUAUCGAGAUCACAATT against NDST3", "median seed-adjusted z-score": "inactive: 0.476"},
      {"sequence": "GACUGUCAAGGGAUGAGCATT against HS6ST1", "median seed-adjusted z-score": "inactive: -0.436"},
      {"sequence": "ACCCAGAUAUGGAUCUGCATT against TTLL10", "median seed-adjusted z-score": "inactive: 0.211"},
      {"sequence": "GCAGGAAAUAGAUCGUUAUTT against RAB1A", "median seed-adjusted z-score": "inactive: 0.395"},
      {"sequence": "AUGGAGAUACUUUAAGUUATT against SPRYD3", "median seed-adjusted z-score": "inactive: 0.207"},
      {"sequence": "CUAUCCUCCCUAUAUCUCATT against OPCML", "median seed-adjusted z-score": "inactive: -0.282"},
      {"sequence": "CCCGAAAGCUAAUAUCGUUTT against UBA2", "median seed-adjusted z-score": "inactive: 0.694"},
      {"sequence": "GCGUGGAACCGGACAUCAATT against TPSD1", "median seed-adjusted z-score": "inactive: 0.0848"},
      {"sequence": "GCCGGUAUGUGAAGGAGAATT against CLK3", "median seed-adjusted z-score": "active: -1.11"},
      {"sequence": "CAUGUCACCUGCAAAAUUATT against THEM2", "median seed-adjusted z-score": "inactive: 0.449"},
      {"sequence": "CGAAACAAGUGACACCUCATT against IL2RA", "median seed-adjusted z-score": "inactive: 0.587"},
      {"sequence": "AGCACUUGCUGACUAACGATT against BCL11B", "median seed-adjusted z-score": "inactive: 0.163"},
      {"sequence": "GGAGGAUUGAAAUAGCACATT against HOXA5", "median seed-adjusted z-score": "inactive: 0"},
      {"sequence": "AGAUGCACAUGAUCCUGUATT against KCNN4", "median seed-adjusted z-score": "inactive: 0.00864"},
      {"sequence": "CGUGGACAAUGUCAAACAUTT against KPNA2", "median seed-adjusted z-score": "inactive: 0.157"},
      {"sequence": "GCAGUGGACCAAAUAUGAATT against UQCRB", "median seed-adjusted z-score": "inactive: 0.348"},
      {"sequence": "GGAUUACUGCGUCGAUUCATT against ETV5", "median seed-adjusted z-score": "inactive: 0.0756"},
      {"sequence": "CAUGCAAGAUUGAAGUAAATT against CHRNB2", "median seed-adjusted z-score": "inactive: -0.649"},
      {"sequence": "CAAGUUCUAUCACUCCUUUTT against IRX2", "median seed-adjusted z-score": "inactive: -0.409"},
      {"sequence": "GGAACAUACAAGUUACCAATT against SLAMF6", "median seed-adjusted z-score": "inactive: 0.0115"},
      {"sequence": "GCUCUGCCGGAGAGACUAUTT against LMO2", "median seed-adjusted z-score": "inactive: 0"},
      {"sequence": "GACUUUCACAGUUCACCGATT against KCTD3", "median seed-adjusted z-score": "inactive: 0.603"},
      {"sequence": "GAGUUUAACCUGACGGAUATT against BEST1", "median seed-adjusted z-score": "inactive: -0.322"},
      {"sequence": "GAAACGAUGAGAUCUGUUUTT against PDHA2", "median seed-adjusted z-score": "inactive: 0.118"}
    ]}
  ]
}
